Among the data in the supplement of paper PMC10849652 are log2 fold change values, retold here.

The chains behind the UniProt entries cited, without tags or fusion partners. Where a name states a change or a piece, a line headed by the entry shows the natural chain unless it says otherwise.
UniProt P09543: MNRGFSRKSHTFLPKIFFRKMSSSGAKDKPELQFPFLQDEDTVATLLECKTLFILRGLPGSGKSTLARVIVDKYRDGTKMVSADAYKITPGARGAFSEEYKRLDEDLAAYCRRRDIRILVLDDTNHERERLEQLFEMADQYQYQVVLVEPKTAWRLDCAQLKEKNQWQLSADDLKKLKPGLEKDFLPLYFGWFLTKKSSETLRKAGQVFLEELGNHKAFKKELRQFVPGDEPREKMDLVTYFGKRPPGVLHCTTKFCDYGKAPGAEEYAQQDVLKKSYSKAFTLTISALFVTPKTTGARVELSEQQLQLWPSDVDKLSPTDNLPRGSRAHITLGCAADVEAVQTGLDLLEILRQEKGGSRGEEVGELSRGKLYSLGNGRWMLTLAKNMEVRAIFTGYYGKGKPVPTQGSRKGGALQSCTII
UniProt Q9UHD1: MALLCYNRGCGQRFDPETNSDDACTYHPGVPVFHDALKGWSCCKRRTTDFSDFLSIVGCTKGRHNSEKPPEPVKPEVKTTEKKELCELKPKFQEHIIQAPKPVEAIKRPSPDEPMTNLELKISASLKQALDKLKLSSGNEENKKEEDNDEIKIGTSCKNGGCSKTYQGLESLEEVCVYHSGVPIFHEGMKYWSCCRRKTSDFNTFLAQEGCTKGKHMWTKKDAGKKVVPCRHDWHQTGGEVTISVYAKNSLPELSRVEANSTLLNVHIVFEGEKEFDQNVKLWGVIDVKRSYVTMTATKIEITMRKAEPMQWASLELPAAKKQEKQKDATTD
UniProt P06732: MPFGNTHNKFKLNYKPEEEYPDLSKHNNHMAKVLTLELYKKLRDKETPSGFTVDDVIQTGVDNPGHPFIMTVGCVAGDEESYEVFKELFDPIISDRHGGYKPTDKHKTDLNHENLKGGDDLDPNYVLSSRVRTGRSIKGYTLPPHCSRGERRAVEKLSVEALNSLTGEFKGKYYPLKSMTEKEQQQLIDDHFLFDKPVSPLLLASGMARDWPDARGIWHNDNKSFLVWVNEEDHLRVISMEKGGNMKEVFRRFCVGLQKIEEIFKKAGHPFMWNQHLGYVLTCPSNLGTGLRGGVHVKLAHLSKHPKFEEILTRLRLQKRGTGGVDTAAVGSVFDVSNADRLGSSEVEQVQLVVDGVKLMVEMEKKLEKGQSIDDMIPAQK
UniProt Q8NE01: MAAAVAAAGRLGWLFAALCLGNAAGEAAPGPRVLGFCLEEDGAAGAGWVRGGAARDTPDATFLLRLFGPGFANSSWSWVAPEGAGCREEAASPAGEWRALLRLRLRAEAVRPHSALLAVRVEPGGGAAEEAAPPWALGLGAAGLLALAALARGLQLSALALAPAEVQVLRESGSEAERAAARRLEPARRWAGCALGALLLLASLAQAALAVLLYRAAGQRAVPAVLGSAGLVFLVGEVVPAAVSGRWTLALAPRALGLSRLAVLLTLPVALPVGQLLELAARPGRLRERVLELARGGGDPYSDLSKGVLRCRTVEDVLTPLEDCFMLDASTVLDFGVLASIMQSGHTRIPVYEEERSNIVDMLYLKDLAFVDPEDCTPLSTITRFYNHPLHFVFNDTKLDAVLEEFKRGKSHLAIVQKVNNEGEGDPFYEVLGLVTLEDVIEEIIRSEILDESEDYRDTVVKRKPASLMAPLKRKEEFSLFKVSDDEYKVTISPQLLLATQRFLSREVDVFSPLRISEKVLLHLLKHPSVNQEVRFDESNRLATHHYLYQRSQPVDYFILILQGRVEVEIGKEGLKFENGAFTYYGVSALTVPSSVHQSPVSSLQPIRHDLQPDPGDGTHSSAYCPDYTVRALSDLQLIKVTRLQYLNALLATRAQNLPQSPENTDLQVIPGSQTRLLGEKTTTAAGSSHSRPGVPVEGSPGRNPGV
UniProt Q6P4Q7: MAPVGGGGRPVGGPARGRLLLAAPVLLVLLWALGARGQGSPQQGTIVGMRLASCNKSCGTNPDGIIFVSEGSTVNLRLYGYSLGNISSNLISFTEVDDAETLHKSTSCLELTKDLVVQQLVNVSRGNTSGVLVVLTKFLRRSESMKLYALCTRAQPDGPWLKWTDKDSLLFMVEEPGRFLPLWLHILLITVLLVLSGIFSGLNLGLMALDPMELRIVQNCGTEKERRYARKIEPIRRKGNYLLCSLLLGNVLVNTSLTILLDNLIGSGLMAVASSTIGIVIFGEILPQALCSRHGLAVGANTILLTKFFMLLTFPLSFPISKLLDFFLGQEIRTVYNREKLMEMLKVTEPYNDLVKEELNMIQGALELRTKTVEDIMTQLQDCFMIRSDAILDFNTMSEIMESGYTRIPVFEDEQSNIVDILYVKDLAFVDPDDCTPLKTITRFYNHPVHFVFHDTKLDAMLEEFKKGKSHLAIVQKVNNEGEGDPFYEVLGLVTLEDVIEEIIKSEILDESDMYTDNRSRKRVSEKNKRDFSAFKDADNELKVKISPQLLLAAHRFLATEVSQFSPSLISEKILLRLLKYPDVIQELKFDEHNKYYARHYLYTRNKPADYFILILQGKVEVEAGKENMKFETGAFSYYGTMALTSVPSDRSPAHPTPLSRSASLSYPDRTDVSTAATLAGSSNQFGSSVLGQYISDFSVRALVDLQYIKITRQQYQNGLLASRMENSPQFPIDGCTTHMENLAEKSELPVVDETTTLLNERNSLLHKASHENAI
UniProt Q8NCH0: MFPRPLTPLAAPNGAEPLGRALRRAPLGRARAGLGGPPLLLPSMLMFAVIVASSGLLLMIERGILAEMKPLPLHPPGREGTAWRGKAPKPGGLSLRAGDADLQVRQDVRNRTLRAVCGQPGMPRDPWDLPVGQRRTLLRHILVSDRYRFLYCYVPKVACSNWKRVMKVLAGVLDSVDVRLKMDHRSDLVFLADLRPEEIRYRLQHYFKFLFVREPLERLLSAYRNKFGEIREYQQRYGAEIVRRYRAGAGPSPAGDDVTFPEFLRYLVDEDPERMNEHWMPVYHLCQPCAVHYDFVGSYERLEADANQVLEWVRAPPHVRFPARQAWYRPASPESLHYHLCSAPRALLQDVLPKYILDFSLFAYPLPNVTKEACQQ
UniProt Q14008: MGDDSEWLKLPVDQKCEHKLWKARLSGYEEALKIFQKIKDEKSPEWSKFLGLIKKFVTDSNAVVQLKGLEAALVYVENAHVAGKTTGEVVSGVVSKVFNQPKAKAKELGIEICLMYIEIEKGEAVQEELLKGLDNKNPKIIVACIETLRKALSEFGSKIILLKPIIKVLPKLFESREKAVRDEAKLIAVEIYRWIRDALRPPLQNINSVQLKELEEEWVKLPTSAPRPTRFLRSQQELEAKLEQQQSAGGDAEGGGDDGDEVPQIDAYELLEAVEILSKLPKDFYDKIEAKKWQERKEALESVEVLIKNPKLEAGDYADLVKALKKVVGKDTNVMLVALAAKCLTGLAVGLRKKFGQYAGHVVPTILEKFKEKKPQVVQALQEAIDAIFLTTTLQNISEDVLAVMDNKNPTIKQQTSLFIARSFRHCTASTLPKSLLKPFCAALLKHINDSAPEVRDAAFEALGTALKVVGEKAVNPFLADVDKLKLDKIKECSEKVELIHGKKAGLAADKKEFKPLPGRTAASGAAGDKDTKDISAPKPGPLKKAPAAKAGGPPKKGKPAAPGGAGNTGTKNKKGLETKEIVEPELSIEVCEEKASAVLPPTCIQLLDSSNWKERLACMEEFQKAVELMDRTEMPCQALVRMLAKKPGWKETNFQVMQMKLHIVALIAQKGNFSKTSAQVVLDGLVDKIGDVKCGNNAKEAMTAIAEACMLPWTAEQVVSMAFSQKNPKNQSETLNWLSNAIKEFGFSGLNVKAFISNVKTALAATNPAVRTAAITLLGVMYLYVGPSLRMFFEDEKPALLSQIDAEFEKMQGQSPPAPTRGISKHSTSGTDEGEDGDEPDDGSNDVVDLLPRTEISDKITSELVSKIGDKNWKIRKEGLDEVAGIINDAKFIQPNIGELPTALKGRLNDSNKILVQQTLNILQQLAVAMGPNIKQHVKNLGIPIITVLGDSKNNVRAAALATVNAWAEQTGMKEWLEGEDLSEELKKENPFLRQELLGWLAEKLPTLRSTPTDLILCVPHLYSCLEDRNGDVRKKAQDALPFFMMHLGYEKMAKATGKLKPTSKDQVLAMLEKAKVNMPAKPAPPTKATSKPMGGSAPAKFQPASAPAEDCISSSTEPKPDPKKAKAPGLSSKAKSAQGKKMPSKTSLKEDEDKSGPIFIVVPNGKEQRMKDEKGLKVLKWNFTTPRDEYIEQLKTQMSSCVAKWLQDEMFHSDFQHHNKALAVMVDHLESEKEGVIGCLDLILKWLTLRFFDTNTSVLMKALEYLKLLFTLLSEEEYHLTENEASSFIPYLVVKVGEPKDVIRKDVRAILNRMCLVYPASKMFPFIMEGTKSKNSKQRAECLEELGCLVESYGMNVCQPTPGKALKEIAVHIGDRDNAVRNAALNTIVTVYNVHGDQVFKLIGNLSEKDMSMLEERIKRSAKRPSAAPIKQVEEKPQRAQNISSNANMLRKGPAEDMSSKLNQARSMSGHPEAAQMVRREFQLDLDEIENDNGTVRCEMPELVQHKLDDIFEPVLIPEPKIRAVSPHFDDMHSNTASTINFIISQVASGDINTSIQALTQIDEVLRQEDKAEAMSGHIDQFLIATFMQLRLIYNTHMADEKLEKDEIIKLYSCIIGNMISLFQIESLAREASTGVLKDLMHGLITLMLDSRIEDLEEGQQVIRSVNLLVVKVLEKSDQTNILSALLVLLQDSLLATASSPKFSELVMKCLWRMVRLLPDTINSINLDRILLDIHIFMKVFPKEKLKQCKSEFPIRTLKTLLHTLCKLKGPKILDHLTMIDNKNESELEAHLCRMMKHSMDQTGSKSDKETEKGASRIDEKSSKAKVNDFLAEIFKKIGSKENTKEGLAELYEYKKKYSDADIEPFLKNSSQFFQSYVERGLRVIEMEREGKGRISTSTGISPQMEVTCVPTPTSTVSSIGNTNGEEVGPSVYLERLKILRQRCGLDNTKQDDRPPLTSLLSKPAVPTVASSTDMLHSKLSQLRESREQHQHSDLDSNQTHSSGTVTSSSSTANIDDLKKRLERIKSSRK
UniProt Q8N5K1: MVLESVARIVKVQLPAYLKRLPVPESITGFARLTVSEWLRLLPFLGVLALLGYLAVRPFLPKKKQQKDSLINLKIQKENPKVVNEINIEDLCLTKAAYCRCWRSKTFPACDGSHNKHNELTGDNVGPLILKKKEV

The list shows a part of the results.

Compound in this experiment: CC1=C(C2=C(C=C1)C(=O)C3=CC=CC=C3N2CCCN)C
Kind of experiment: log2 fold change, soluble protein after heating vs DMSO (PISA); higher = thermal stabilisation; K562 cells, 10 uM, 30 min; active = over 0.2 and 3.5 SD of the protein, either way, in both replicates (recomputed). An outline of the steps:
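Quantification of soluble protein used TMTpro 16plex LC-MS/MS, with channel sums equalised. Samples were the supernatant after 21,000xg for 90 min of pooled aliquots from K562 cells (2×10^6 cells/mL) treated with 10 μM compound for 30 min, heated for 3 min over 48°C-58°C, and extracted in PBS with 0.5% NP-40 at 4°C. Values, from duplicates, describe thermal stability against control samples on a log2 fold-change scale.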
With CNP (UniProt P09543), the log2 fold change was inactive: 0.071.
The value for CHORDC1 (UniProt Q9UHD1) was inactive: 0.03; that for CKM (UniProt P06732) was inactive: 0.072.
CNNM3 (UniProt Q8NE01): the log2 fold change is inactive: 0.051.
Turning to CNNM4 (UniProt Q6P4Q7), the log2 fold change was inactive: 0.021.
Consider CHST14 (UniProt Q8NCH0), for which the log2 fold change was inactive: -0.007.
As for CKAP5 (UniProt Q14008), the log2 fold change was inactive: 0.051.
The value for CISD2 (UniProt Q8N5K1) was inactive: 0.026; that for CKMT1A (UniProt P12532) was inactive: -0.039.
